In PubChem BioAssay AID540276 (National Center for Advancing Translational Sciences (NCATS), 2011):
Values joined by “and” are separate entries in the source; they are usually repeats but may differ in a detail not shown here. Equal entries are not always repeated. The campaign covered roughly 300,000 compounds. About 5,400 (1.8%) were called active. The shares of active, inactive and inconclusive entries below differ from those in the screen. Calls follow the shape of the full dose curve; tested in HEK293 cells. Potencies beside an inconclusive call are fits to weak or partial responses and may not hold up.

assay: qHTS for inhibitors of binding or entry into cells for Marburg Virus; details: Marburg virus pseudotyped entry inhibition, cell reporter; activity change, negative = inhibition: at 37.8 µM (top of the series) unless noted
% is scaled to controls: 0 for no effect and ±100 for the full control effect; potency is read from the fitted curve at half-maximal effect.

Row | SMILES | Potency | activity change, negative = inhibition
1 | O=C(OCn1ncc(Br)c(Br)c1=O)c1ccccc1Cl | active: 10 µM | –
2 | Cc1cc(C)cc(NC(=O)c2cccc3c2C(=O)N(C2CCCCC2)C3)c1 | inconclusive: 11.2 µM [activator, single point] | –
3 | CS(=O)(=O)NN1C(=O)c2ccccc2NC1c1ccccc1O (stereo not drawn) | inactive | –
4 | COc1ccc(CCNC(=O)c2ccc3c(c2)N(Cc2ccc(F)cc2)CCS3)cc1OC | inconclusive: 35.5 µM [inhibitor, single point] and inconclusive: 15.8 µM [inhibitor, partial curve, poor fit] | –
5 | CCOC(=O)c1nn(-c2ccccc2)c(=O)cc1OCC(=O)Nc1cccc(OC)c1 | inactive | –
6 | CCc1nn(CC(=O)NCc2ccccc2Cl)c(=O)c2cccn12 | inconclusive: 6.31 µM [inhibitor, partial curve, poor fit] and inconclusive: 5.62 µM [activator, single point] | –
7 | CCc1ccc(N2CC(C(=O)Nc3cccnc3)CC2=O)cc1 (stereo not drawn) | inactive | –
8 | Cc1ccccc1Cn1ccc(-c2ccc3c(c2)OCO3)n1 | inactive | –
9 | COc1ccc(C2=C(Nc3ccc(C)c(C)c3)c3ccccc3C2=O)cc1 | inactive | –
10 | Cc1ccsc1C1C(C#N)=C(N)Oc2n[nH]c(C)c21 (stereo not drawn) | inconclusive: 0.282 µM [activator, full curve, poor fit] | –
11 | CS(=O)(=O)N(CC(=O)NCc1ccco1)c1ccc(Cl)c(C(F)(F)F)c1 | inconclusive: 14.6 µM [inhibitor, partial curve, poor fit] | –
12 | Cc1ccc(NC(=O)CN(C)CC(=O)Nc2ccc(N3CCOCC3)cc2)c([N+](=O)[O-])c1 | inconclusive: 3.66 µM [inhibitor, single point] | –
13 | Cn1c(O)c(N=NC(=O)Cn2ccc(C(F)(F)F)n2)c2ccccc21 | inconclusive: 2.82 µM [activator, partial curve] | –
14 | CCOC(=O)c1c(NC(=S)N2CCN(C)CC2)sc(C)c1-c1ccccc1 | inconclusive: 11.2 µM [inhibitor, single point] | –
15 | Nc1nc(-c2ccccc2)nc2sc3c(c12)CCCC3 | inconclusive: 35.5 µM [inhibitor, single point] | –
16 | O=[N+]([O-])c1cc(Cl)ccc1Sc1cccc2cccnc12 | inactive | –
17 | N#Cc1cccc(NC(=O)c2cc3c(s2)-c2ccc(Cl)cc2SC3)c1 | inactive | –
18 | O=C(NCCc1ccccc1)c1ccc(CS(=O)Cc2cccc(Cl)c2)o1 (stereo not drawn) | inactive | –
19 | O=C(CSc1cccc[n+]1[O-])Nc1ccc(C(F)(F)F)cc1[N+](=O)[O-] | inconclusive: 22.4 µM [activator, partial curve, poor fit] | –
20 | CCN1C(=O)C(c2ccc(O)cc2)(c2ccc(O)cc2)c2ccccc21 | inconclusive: 17.8 µM [inhibitor, single point] | –
21 | C=CCc1ccc(OCCCCNC2CCCC2)c(OC)c1 | inconclusive: 11.2 µM [inhibitor, partial curve, poor fit] | –
22 | O=C(CC1C(=O)NCCN1CC1CCCCC1)NCc1cc(F)ccc1F (stereo not drawn) | inconclusive: 31.6 µM [inhibitor, partial curve, poor fit] | –
23 | COc1ccc(Cl)cc1NC(=O)CNCC(c1ccccc1)N(C)C (stereo not drawn) | inconclusive: 35.5 µM [inhibitor, single point] | –
24 | Cc1ccnc(NC(=O)C23CC4CC(CC(C4)C2)C3)c1 | inactive | –
25 | Cc1ccn2c(=O)c(C(=O)NC(C)c3ccccc3)c(O)nc2c1 (stereo not drawn) | inconclusive: 5.62 µM [inhibitor, single point] | –

Row | SMILES | Potency | activity change, negative = inhibition
26 | CCOc1ccc(N(C)C(CNS(=O)(=O)c2ccccc2)c2ccccc2)cc1 (stereo not drawn) | inconclusive: 8.91 µM [inhibitor, partial curve, poor fit] | –
27 | O=C(COc1ccccc1)Nc1cccc(-c2cn3cccnc3n2)c1 | inactive | –
28 | CC(C)c1ccc(Nc2nnc(SCC(=O)NCC3CCCO3)s2)cc1 (stereo not drawn) | inactive | –
29 | CS(=O)(=O)N(CC(=O)NCc1cccnc1)C1CCCCC1 | inconclusive: 3.55 µM [inhibitor, partial curve, poor fit] | –
30 | O=C(O)C(=Cc1ccccc1)Cc1ccccc1 | inactive | –
31 | O=C(Oc1ccc(Br)cc1)C1CCN(C2=NS(=O)(=O)c3ccccc32)CC1 | inactive | –
32 | CC(=O)c1cc(-c2ccccc2)n(CC(=O)Nc2cc(C)cc(C)c2)c1C | inconclusive: 5.62 µM [inhibitor, partial curve, poor fit] | –
33 | O=C(NC1=NCCS1)C1Cc2ccccc2CN1C(=O)c1ccccc1 (stereo not drawn) | inactive | –
34 | CCOC(=O)NC1=NCC(C)(C)S1 | inconclusive: 6.31 µM [activator, partial curve, poor fit] | –
35 | O=C(NC1CC1)c1cccc(S(=O)(=O)Nc2ccccc2F)c1 | inconclusive: 0.891 µM [activator, single point] | –
36 | O=C(Nc1ccc(-c2cn3ccccc3n2)cc1)c1ccc(Cl)cc1 | inactive | –
37 | COC(=O)c1nc(N)sc1-c1ccccc1 | inactive | –
38 | CCCCn1c(=O)c2ccccc2c2ccccc2c1=O | inactive | –
39 | O=C(CSc1cn(CCNC(=O)c2c(F)cccc2F)c2ccccc12)Nc1ccccc1F | inconclusive: 35.5 µM [inhibitor, single point] | –
40 | c1ccc2cc(OCCCn3ccnc3)ccc2c1 | inactive | –
41 | CCCC(=O)NCCc1c2n(c3ccc(OC)cc13)CCCc1ccccc1-2 | inconclusive: 18.3 µM [inhibitor, single point] and inconclusive: 31.6 µM [inhibitor, partial curve, poor fit] | –
42 | O=C1CC2(CCCC2)CC(=O)N1CCCCN1CCN(c2ncccn2)CC1 | inconclusive: 5.01 µM [activator, full curve, poor fit] | –
43 | COc1cc(/C=N/NC(=O)c2cc(-c3ccc4c(c3)OCO4)n[nH]2)ccc1O | inactive | –
44 | Cn1c(O)c(N=Nc2ccccc2[N+](=O)[O-])c2ccccc21 | inactive | –
45 | Cc1oc2ccc(O)c(CN3CCCC(C)C3)c2c1C(=O)Nc1ccccc1 (stereo not drawn) | inconclusive: 20 µM [inhibitor, partial curve, poor fit] | –
46 | COc1ccc2c(c1)c(=O)c(C(=O)c1ccc(Cl)cc1)cn2CC(=O)Nc1ccc2c(c1)OCCO2 | inactive | –
47 | O=C(CN1CCCc2ccccc21)N1CCc2ccccc21 | inconclusive: 2.51 µM [inhibitor, full curve] | –
48 | Cc1cccc(N2CCN(C(=O)CN3C(=O)NC(C)(C4CC4)C3=O)CC2)c1C (stereo not drawn) | inactive | –
49 | Cc1ccc(CN2CCN(Cc3ccc4ncccc4c3)CC2CCO)cc1 (stereo not drawn) | inactive | –
50 | CC(C)C(OC(=O)c1nsc(Cl)c1Cl)C(=O)NC1CCCCC1 (stereo not drawn) | inactive | –

Row | SMILES | Potency | activity change, negative = inhibition
51 | CCCCC(=O)NC(c1ccc(N(C)C)cc1)c1ccc2cccnc2c1O (stereo not drawn) | inconclusive: 1.12 µM [inhibitor, full curve, poor fit] | –
52 | Clc1ccccc1-c1nnc2sc(C3COc4ccccc4O3)nn12 (stereo not drawn) | inactive | –
53 | CN(C)c1ccc(/C=N/n2ncc3ccccc32)cc1 | active: 10.3 µM | –
54 | C/C=C/c1ccc(OCCOc2cccc3cccnc23)c(OC)c1 | inactive | –
55 | CN(C)c1ccc(C(=S)N2CCOCC2)cc1 | inconclusive: 16.4 µM [activator, partial curve, poor fit] | –
56 | CCC(C)(C)n1nnnc1C(c1cccs1)N1CCN(c2nc3ccccc3s2)CC1 (stereo not drawn) | inconclusive: 23.1 µM [inhibitor, single point] | –
57 | CC(C)N(Cc1nc2ccccc2[nH]1)C(C)C | inconclusive: 20.6 µM [inhibitor, partial curve, poor fit] | –
58 | CCc1c(C)nc2nc(-c3ccccc3)nn2c1NCc1ccc(C)cc1 | inconclusive: 35.5 µM [inhibitor, single point] | –
59 | NC(=S)N/N=C1\CC(c2ccc3c(c2)OCCO3)Oc2ccc(F)cc21 (stereo not drawn) | inconclusive: 20 µM [inhibitor, partial curve, poor fit] | –
60 | Cc1[nH]nc(NNC(=O)c2ccccc2)c1[N+](=O)[O-] | inactive | –
61 | Cc1nc2cc(NCc3ccc(Cl)cc3)ccc2n1C | inconclusive: 25.1 µM [inhibitor, single point] | –
62 | Cc1ccc2nc(NC(=O)C3CC3C)sc2c1 (stereo not drawn) | inactive | –
63 | CCN(CC)C(=O)Cn1c(=O)n(C)c2ccccc21 | inconclusive: 15.8 µM [activator, single point] | –
64 | COc1ccc(Cn2c(CCC(=O)Nc3ccccc3OC)nc3cccnc32)cc1 | inconclusive: 8.91 µM [activator, full curve, poor fit] | –
65 | CSc1ccccc1C(=O)C1CCCN(C(=O)c2csnn2)C1 (stereo not drawn) | inconclusive: 20 µM [activator, single point] | –
66 | N=c1oc2ccccc2cc1C(=O)Nc1ccccc1 | inconclusive: 5.01 µM [inhibitor, full curve, poor fit] | –
67 | COc1ccccc1NC(=O)CSc1nc2sc(C)c(C)c2c(=O)n1Cc1ccco1 | inconclusive: 16.4 µM [inhibitor, single point] | –
68 | Cc1ccc2nc(-c3ccco3)c(Nc3ccc4c(c3)OCCO4)n2c1 | – | inconclusive: 18.3% [activator] [at 46.1 µM]
69 | COc1cccc(N2CCN(C(=O)CC(NC(=O)c3ccccc3)c3ccccc3)CC2)c1 (stereo not drawn) | inactive | –
70 | O=C(NCC1CCCO1)c1cc2ccccc2o1 (stereo not drawn) | inconclusive: 12.6 µM [activator, partial curve, poor fit] | –
71 | O=C(NCC(=O)N1CCN(Cc2ccccc2)CC1)c1ccc(Br)cc1 | inconclusive: 25.1 µM [inhibitor, single point] | –
72 | CNC(=O)NC(=O)CN1C=NC2SC(c3ccccc3)C=C2C1=O (stereo not drawn) | inactive | –
73 | CC[C@H]1OC(=O)[C@H](C)[C@@H](O[C@H]2C[C@@](C)(OC)[C@@H](O)[C@H](C)O2)[C@H](C)[C@@H](O[C@@H]2O[C@H](C)C[C@H](N(C)C)[C@H]2O)[C@](C)(O)C[C@@H](C)[C@@H]2N[C@@H](COCCOC)O[C@H]([C@H]2C)[C@]1(C)O | inconclusive: 13 µM [inhibitor, partial curve, poor fit] | –

Whole records, quoted from the list:
COC(=O)c1nc(N)sc1-c1ccccc1 in the list: Potency: inactive
CCCCC(=O)NC(c1ccc(N(C)C)cc1)c1ccc2cccnc2c1O (stereo not drawn) in the list: Potency: inconclusive: 1.12 µM [inhibitor, full curve, poor fit]
CC(=O)c1cc(-c2ccccc2)n(CC(=O)Nc2cc(C)cc(C)c2)c1C in the list: Potency: inconclusive: 5.62 µM [inhibitor, partial curve, poor fit]

As entered above.
Potency, `Cc1ccc2nc(NC(=O)C3CC3C)sc2c1` (stereo not drawn) reads inactive
Potency, `Cc1ccc(CN2CCN(Cc3ccc4ncccc4c3)CC2CCO)cc1` (stereo not drawn) reads inactive
